Reference: US20090305971A1 (YALE UNIVERSITY, published 2009)
No constants are given. Whether binding was seen depends on the method and setting. For some assays here: In cells and extracts the contact can be indirect. Some results given as binding are weak or reduced against the parent protein; the word gives no strength. For some assays here: Where a sequence is shown, tags or fusion partners need not be part of it. Blank lines part the entries; values can stand above or below the molecule they belong to.

Key:
[1] = molecular target: T1, human Nogo-B receptor (NgBR), expressed from the cloned cDNA on transfected COS-7 or CHO cells (human) (UniProt Q96E22); experiment: legend of FIG. 8, competition with AP-Am-Nogo-B on CHO cells expressing NgBR
T1 sequence: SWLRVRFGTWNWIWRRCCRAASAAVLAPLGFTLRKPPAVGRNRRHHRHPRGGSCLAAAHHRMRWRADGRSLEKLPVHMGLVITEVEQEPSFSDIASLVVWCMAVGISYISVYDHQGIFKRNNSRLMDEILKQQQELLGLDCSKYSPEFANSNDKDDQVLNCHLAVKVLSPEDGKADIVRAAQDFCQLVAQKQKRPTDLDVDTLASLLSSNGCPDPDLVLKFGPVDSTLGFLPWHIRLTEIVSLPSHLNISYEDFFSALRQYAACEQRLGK

[2] = molecular target: T1, human Nogo-B receptor (NgBR), expressed from the cloned cDNA on transfected COS-7 or CHO cells (human); experiment: competition with 10 nM AP-Am-Nogo-B on CHO cells transfected with NgBR (FIG. 8)
[3] = molecular target: T2, NgBR-HA (full-length human NgBR with a C-terminal HA tag) (human) (UniProt Q96E22); experiment: co-immunoprecipitation: CHO lysates with NgBR-HA mixed with purified Am-Nogo-B-myc, anti-HA beads, Western blot (FIG. 9)
T2 sequence: T1 sequence

[4] = molecular target: T3, Nogo-B receptor (NgBR), endogenous, on human umbilical vein endothelial cells (HUVEC) (human) (UniProt Q96E22); experiment: surface binding of AP proteins to HUVEC (FIG. 12)
T3 sequence: T1 sequence

[5] = molecular target: T1, human Nogo-B receptor (NgBR), expressed from the cloned cDNA on transfected COS-7 or CHO cells (human); experiment: surface binding of AP proteins to CHO cells expressing NgBR (FIG. 11)
[6] = molecular target: T1, human Nogo-B receptor (NgBR), expressed from the cloned cDNA on transfected COS-7 or CHO cells (human); experiment: legend of FIG. 7
[7] = molecular target: T1, human Nogo-B receptor (NgBR), expressed from the cloned cDNA on transfected COS-7 or CHO cells (human); experiment: legend of FIG. 8
[8] = molecular target: T1, human Nogo-B receptor (NgBR), expressed from the cloned cDNA on transfected COS-7 or CHO cells (human); experiment: legend of FIG. 10
[9] = molecular target: T3, Nogo-B receptor (NgBR), endogenous, on human umbilical vein endothelial cells (HUVEC) (human); experiment: legend of FIG. 42
[10] = molecular target: T1, human Nogo-B receptor (NgBR), expressed from the cloned cDNA on transfected COS-7 or CHO cells (human); experiment: legend of FIG. 58
[11] = molecular target: T3, Nogo-B receptor (NgBR), endogenous, on human umbilical vein endothelial cells (HUVEC) (human); experiment: legend of FIG. 45 (HUVEC part)
[12] = molecular target: T3, Nogo-B receptor (NgBR), endogenous, on human umbilical vein endothelial cells (HUVEC) (human); experiment: legend of FIG. 4, AP-fusion binding to HUVEC
[13] = molecular target: T1, human Nogo-B receptor (NgBR), expressed from the cloned cDNA on transfected COS-7 or CHO cells (human); experiment: AP-fusion binding to stable CHO cell lines (FIG. 20)
[14] = molecular target: T3, Nogo-B receptor (NgBR), endogenous, on human umbilical vein endothelial cells (HUVEC) (human); experiment: AP-fusion binding to HUVEC 72 hours after NgBR siRNA
[15] = molecular target: T1, human Nogo-B receptor (NgBR), expressed from the cloned cDNA on transfected COS-7 or CHO cells (human); experiment: AP-fusion binding to cells expressing NgBR after S2 siRNA (FIG. 26D)
[16] = molecular target: T2, NgBR-HA (full-length human NgBR with a C-terminal HA tag) (human); experiment: AP-fusion binding to cells expressing NgBR-HA after S2 siRNA (FIG. 26D)
[17] = molecular target: T1, human Nogo-B receptor (NgBR), expressed from the cloned cDNA on transfected COS-7 or CHO cells (human); experiment: AP-fusion binding to COS cells transfected with the NgBR cDNA, AP staining (FIG. 6)
[18] = molecular target: T1, human Nogo-B receptor (NgBR), expressed from the cloned cDNA on transfected COS-7 or CHO cells (human); experiment: increasing concentrations of AP proteins on CHO cells expressing NgBR, 2 hours at 4 C (FIG. 10)

binding [1]: binds
binding [2]: binds
binding [3]: binds
Molecule: Am-Nogo-B (residues 1-200 of human Nogo-B, secreted, with Myc-His tag) (from UniProt Q9NQC3 1-200) (ligand)

binding [4]: binds
binding [5]: binds
Molecule: AP-Nogo-B (61-200) (from UniProt Q9NQC3 61-200) (ligand)

binding [6]: binds
binding [7]: binds
binding [8]: binds
binding [9]: binds
binding [10]: binds
binding [11]: binds
binding [12]: binds
binding [4]: binds
binding [13]: binds
binding [14]: binds
binding [15]: binds
binding [5]: binds
binding [16]: binds
binding [17]: binds
binding [18]: binds
B1: AP-Am-Nogo-B (alkaline phosphatase fusion protein with residues 1-200 at the amino terminus of human Nogo-B) (ligand, UniProt Q9NQC3-2 1-200, looked up)
chain: MEDLDQSPLVSSSDSPPRPQPAFKYQFVREPEDEEEEEEEEEEDEDEDLEELEVLERKPAAGLSAAPVPTAPAAGAPLMDFGNDFVPPAPRGPLPAAPPVAPERQPSWDPSPVSSTVPAPSPLSAAAVSPSKLPEDDEPPARPPPPPPASVSPQAEPVWTPPAPAPAAPPSTPAAPKRRGSSGSVVVDLLYWRDIKKTGV
notes: range 1-200; also called full-length AP-Am-Nogo-B; APNogo200; not shown: placental alkaline phosphatase coding region of vector pcAP-5
